Paper PMC4994950
No constants are given. Whether binding was seen depends on the method and setting.

Key:
[1] = biological target: human tyrosinase, residues 19-456 (TYR456) (human) (UniProt P14679); experiment: SEC; analytical gel filtration, Superdex 200 10/300; 0.1 mL of ~10 mg/mL protein loaded; 25 mM Tris-HCl, pH 7.8, 200 mM NaCl; 0.5 mL/min; both purified
[2] = biological target: human tyrosinase, residues 19-469 (TYR469) (human) (UniProt P14679); experiment: as above

binding [1] | binding [2] | Binder
no binding (tested: ~10 mg/mL loaded) | – | human tyrosinase, residues 19-456 (TYR456) (domain or fragment, UniProt P14679 19-456, N-linked glycosylation (seven putative sites)) HFPRACVSSKNLMEKECCPPWSGDRSPCGQLSGRGSCQNILLSNAPLGPQFPFTGVDDRESWPSVFYNRTCQCSGNFMGFNCGNCKFGFWGPNCTERRLLVRRNIFDLSAPEKDKFFAYLTLAKHTISSDYVIPIGTYGQMKNGSTPMFNDINIYDLFVWMHYYVSMDALLGGSEIWRDIDFAHEAPAFLPWHRLFLLRWEQEIQKLTGDENFTIPYWDWRDAEKCDICTDEYMGGQHPTNPNLLSPASFFSSWQIVCSRLEEYNSHQSLCNGTPEGPLRRNPGNHDKSRTPRLPSSADVEFCLSLTQYESGSMDKAANFSFRNTLEGFASPLTGIADASQSSMHNALHIYMNGTMSQVQGSANDPIFLLHHAFVDSIFEQWLRRHRPLQEVYPEANAPIGHNRESYMVPFIPLYRNGDFFISSKDLGYDYSYLQDSD
– | no binding (tested: ~10 mg/mL loaded) | human tyrosinase, residues 19-469 (TYR469) (domain or fragment, UniProt P14679 19-469, N-linked glycosylation (seven putative sites)) HFPRACVSSKNLMEKECCPPWSGDRSPCGQLSGRGSCQNILLSNAPLGPQFPFTGVDDRESWPSVFYNRTCQCSGNFMGFNCGNCKFGFWGPNCTERRLLVRRNIFDLSAPEKDKFFAYLTLAKHTISSDYVIPIGTYGQMKNGSTPMFNDINIYDLFVWMHYYVSMDALLGGSEIWRDIDFAHEAPAFLPWHRLFLLRWEQEIQKLTGDENFTIPYWDWRDAEKCDICTDEYMGGQHPTNPNLLSPASFFSSWQIVCSRLEEYNSHQSLCNGTPEGPLRRNPGNHDKSRTPRLPSSADVEFCLSLTQYESGSMDKAANFSFRNTLEGFASPLTGIADASQSSMHNALHIYMNGTMSQVQGSANDPIFLLHHAFVDSIFEQWLRRHRPLQEVYPEANAPIGHNRESYMVPFIPLYRNGDFFISSKDLGYDYSYLQDSDPDSFQDYIKSYLE
